Laboratory results: PubChem BioAssay AID652259 (Drosophila RNAi Screening Center, 2013)
In all, the deposit lists about 22,000 reagents; shown is an unselected part of those that have a named target and a result. Over the whole deposit, 233 (1.1%) got an active call. 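Light values are raw, unnormalised plate reads; the ratio scores behind the reporter calls were not deposited.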 Reagents against one gene are numbered here. A plus sign joins genes that one reagent is predicted to hit. Not stated in the record: the amount of reagent, the time to read-out, the dose of the treatment.

Test: 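Genome-wide hunt for genes that control Wingless pathway activity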 (primary screen)
Cells: Drosophila clone 8 imaginal disc epithelial cells
Knock-down reagent: long dsRNA against Drosophila genes
Treatment: pathway stimulated by co-transfected Wingless expression plasmid
Measurement: 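Firefly luciferase from a tcf-site Wingless reporter, measured alongside co-transfected Renilla luciferase that tracks transfection; pathway stimulated by a Wingless plasmid; the firefly-to-Renilla ratio is not deposited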
Direction: firefly reporter light: higher = more Wg reporter light, before normalisation; Renilla control light: higher = more transfected or surviving cells
Active means: 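Strong candidates differ from their plate mean by at least two out of four per-plate statistical tests; weak candidates meet just one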
Calls: active = candidate regulator (raises or lowers reporter); inactive = not a candidate

For CG32767, what was measured?
reporter change call, replicate 1: Wg reporter activity lowered; firefly reporter light, replicate 1: 10733; Renilla control light, replicate 1: 14298; call: active

Which result is listed for snz?
firefly reporter light, replicate 1: 28002; Renilla control light, replicate 1: 12374; call: inactive

How did the screen score pyx #1?
firefly reporter light, replicate 1: 7712; Renilla control light, replicate 1: 2749; call: inactive

For pyx #2, what was measured?
firefly reporter light, replicate 1: 5883; Renilla control light, replicate 1: 2118; call: inactive

With CG6937, what was measured?
firefly reporter light, replicate 1: 10339; Renilla control light, replicate 1: 5787; call: inactive

With Ciz1, what does the deposit list?
firefly reporter light, replicate 1: 3953; Renilla control light, replicate 1: 1376; call: inactive

With kel, how do the results read?
firefly reporter light, replicate 1: 2835; firefly reporter light, replicate 2: 4598; Renilla control light, replicate 1: 1219; Renilla control light, replicate 2: 2055; call: inactive

What is on record for Pss?
firefly reporter light, replicate 1: 15361; Renilla control light, replicate 1: 4755; call: inactive

With MAPk-Ak2, what was measured?
firefly reporter light, replicate 1: 19323; Renilla control light, replicate 1: 9184; call: inactive

How did the screen score CG6793?
firefly reporter light, replicate 1: 8842; Renilla control light, replicate 1: 2937; call: inactive

How did the screen score CG43308?
firefly reporter light, replicate 1: 22528; Renilla control light, replicate 1: 14461; call: inactive

4 consecutive records already listed, for reference:
snz | firefly reporter light, replicate 1: 28002; Renilla control light, replicate 1: 12374; call: inactive
pyx #1 | firefly reporter light, replicate 1: 7712; Renilla control light, replicate 1: 2749; call: inactive
pyx #2 | firefly reporter light, replicate 1: 5883; Renilla control light, replicate 1: 2118; call: inactive
CG6937 | firefly reporter light, replicate 1: 10339; Renilla control light, replicate 1: 5787; call: inactive

Further records follow:
With CG10914, what was measured?
firefly reporter light, replicate 1: 6954; Renilla control light, replicate 1: 2976; call: inactive

With CG2065 #1, how do the results read?
firefly reporter light, replicate 1: 4800; firefly reporter light, replicate 2: 9753; Renilla control light, replicate 1: 1393; Renilla control light, replicate 2: 5155; call: inactive

For CG2065 #2, how do the results read?
firefly reporter light, replicate 1: 6.07e5; firefly reporter light, replicate 2: 6.57e5; Renilla control light, replicate 1: 3.59e5; Renilla control light, replicate 2: 3.19e5; call: inactive

How did the screen score CG18787 + CG18789?
reporter change call, replicate 1: Wg reporter activity raised; firefly reporter light, replicate 1: 5507; firefly reporter light, replicate 2: 7792; Renilla control light, replicate 1: 713; Renilla control light, replicate 2: 1680; call: active

How did the screen score Lgr3 #1?
firefly reporter light, replicate 1: 19169; Renilla control light, replicate 1: 14311; call: inactive

With Lgr3 #2, what was measured?
firefly reporter light, replicate 1: 22144; Renilla control light, replicate 1: 17255; call: inactive

With CG32052, what was measured?
firefly reporter light, replicate 1: 7223; Renilla control light, replicate 1: 2806; call: inactive

What is on record for CG32628 (retired record)?
firefly reporter light, replicate 1: 19976; Renilla control light, replicate 1: 11174; call: inactive

What is on record for CG14860?
firefly reporter light, replicate 1: 19510; Renilla control light, replicate 1: 6595; call: inactive

What is on record for Ice1?
firefly reporter light, replicate 1: 2618; firefly reporter light, replicate 2: 5469; Renilla control light, replicate 1: 353; Renilla control light, replicate 2: 1106; call: inactive

How did the screen score CG34241?
firefly reporter light, replicate 1: 3041; Renilla control light, replicate 1: 1830; call: inactive

What is on record for ppk24?
firefly reporter light, replicate 1: 7208; Renilla control light, replicate 1: 2664; call: inactive

Which result is listed for CG11294?
firefly reporter light, replicate 1: 25010; Renilla control light, replicate 1: 6582; call: inactive

What did the screen give for Idh3a?
firefly reporter light, replicate 1: 18784; Renilla control light, replicate 1: 10707; call: inactive
